Structures can show the parent of a compound that is named as a salt. This is one part of the list. Repeats in this data set agree poorly, so a single value says little.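 Human fetal ventral-midbrain neural progenitor line ReNCell VM, differentiated without mitogens. Images stained for doublecortin (early neurons) or tyrosine hydroxylase (dopaminergic neurons) were scored by blinded raters against untreated wells (0 = no change). Repeats and both raters were averaged, and compounds averaging 2 or higher were picked as hits for retesting.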
Each compound was assayed on ReNCell VM (assay: neuronal differentiation score (DCX+ cell fraction vs untreated, manual image score) (score (-3 to 3)); higher = more neuronal differentiation). Conditions: library: Tocriscreen; 2 uM; 2 weeks.

Neuronal differentiation score, inactive:
CCCCC1CCC(c2nc(-c3ccncc3)no2)CC1 (centres undefined) 0
CCCN(C/C=C/I)C1CCc2cccc(O)c2C1 (centres undefined) [8-Hydroxy-PIPAT oxalate] 0
Cn1cc(/C=C2\C(=O)Nc3cccnc32)c2ccccc21 0
CN1C(=O)C(Cc2c[nH]c3ccccc23)NC1=S (centres undefined) [Necrostatin-1] 0
O=C(NC(NC(=S)Nc1ccc(F)c([N+](=O)[O-])c1)C(Cl)(Cl)Cl)C(c1ccccc1)c1ccccc1 (centres undefined) 0

Each compound was assayed on ReNCell VM (assay: dopaminergic neuron differentiation score (TH+ cell fraction vs untreated, manual image score) (score (0 to 3)); higher = more TH+ dopaminergic neuron differentiation). Conditions: library: LOPAC; 2 uM; 4 weeks; BDNF 10 ng/ml + GDNF 10 ng/ml.

Dopaminergic neuron differentiation score, inactive:
O=c1cc(N2CCOCC2)oc2c(-c3ccccc3)cccc12 [LY-294,002 hydrochloride] 0
CCC(NC(C)C)C(O)c1ccc(O)c(O)c1 (centres undefined) [Isotharine mesylate] 0
NC(=O)C1=CN(C2OC(COP(=O)(O)OP(=O)(O)OC[C@H]3O[C@@H](n4cnc5c(N)ncnc54)C(OP(=O)(O)O)[C@H]3O)C(O)C2O)C=CC1 (some centres undefined) [NADPH tetrasodium] 0
O=c1[nH]c2cc(Cl)c(Cl)cc2[nH]c1=O [6,7-Dichloroquinoxaline-2,3-dione] 1
NCCCCN [Putrescine dihydrochloride] 0
COc1ccc2cc([C@H](C)C(=O)O)ccc2c1 [(-)-Naproxen sodium] 0

Same assay, conditions: library: Phytochemical; 2 uM; 4 weeks; BDNF 10 ng/ml + GDNF 10 ng/ml

Dopaminergic neuron differentiation score, inactive:
COC(=O)C1=CO[C@@H](C)[C@H]2CN3CCc4c([nH]c5ccccc45)[C@@H]3C[C@H]12 [Ajmalicine hydrochloride] 0
CC1(C)O[C@@H]2C[C@H]3[C@@H]4CCC5=CC(=O)C=C[C@]5(C)[C@@]4(F)[C@@H](O)C[C@]3(C)[C@]2(C(=O)CO)O1 [Triamcinolone acetonide] 0
C[C@@H]1C(=O)O[C@H]2C[C@@]34[C@H]5C[C@@H](C(C)(C)C)[C@]36[C@@H](OC(=O)[C@@H]6O)O[C@@]4(C(=O)O5)[C@]21O [Ginkgolide A] 0
N[C@@H](Cc1c[nH]c2ccccc12)C(=O)O [L-tryptophane] 0
C=C(C)[C@@H]1CC[C@]2(C(=O)O)CC[C@]3(C)[C@H](CC[C@@H]4[C@@]5(C)CC[C@H](O)C(C)(C)[C@@H]5CC[C@]43C)[C@@H]12 [Betulinic acid] 1

Same assay, conditions: library: Prestwick; 2 uM; 4 weeks; BDNF 10 ng/ml + GDNF 10 ng/ml

Dopaminergic neuron differentiation score, inactive:
CCCC(C(=O)OCCN(CC)CC)(c1ccccc1)c1ccccc1 [Proadifen hydrochloride] 0
Fc1ccc([C@@H]2CCNC[C@H]2COc2ccc3c(c2)OCO3)cc1 [Paroxetine Hydrochloride] 0
Cc1cn([C@H]2C[C@H](N=[N+]=[N-])[C@@H](CO)O2)c(=O)[nH]c1=O [Zidovudine, AZT] 0
N=C(N)NCC1COC2(CCCCC2)O1 (centres undefined) [Guanadrel sulfate] 0
Cn1c(=O)c2c(ncn2CCO)n(C)c1=O [Etofylline] 0
COC(=O)Nc1nc2cc(Sc3ccccc3)ccc2[nH]1 [Fenbendazole] 0

Same assay, conditions: library: Spectrum; 2 uM; 4 weeks; BDNF 10 ng/ml + GDNF 10 ng/ml

Dopaminergic neuron differentiation score, inactive:
O=c1c(-c2ccc(O)cc2)coc2cc(O)cc(O)c12 0
COc1cc(/C=C/C(=O)O)cc(OC)c1OC 0
CCN(CC)CCNc1ccc(CO)c2sc3ccccc3c(=O)c12 0
CC(C)(C(=O)c1cccnc1)c1cccnc1 0
Cc1ccc2c(c1)CC[C@H]1CC(=O)CC[C@]21C 0
O=S(=O)(O)NC1CCCCC1 0
NC(N)=O 0
O=c1c(O)c(-c2ccccc2)oc2cc(O)cc(O)c12 0
CC(C)COC(=O)c1ccc(N)cc1 1
CO[C@H]1C[C@@H]2CC[C@@H](C)[C@@](O)(O2)C(=O)C(=O)N2CCCC[C@H]2C(=O)O[C@H]([C@H](C)C[C@@H]2CC[C@@H](O)[C@H](OC)C2)CC(=O)[C@H](C)/C=C(\C)[C@@H](O)[C@@H](OC)C(=O)[C@H](C)C[C@H](C)/C=C/C=C/C=C/1C 0
CCc1ccc2c(O)c3c(cc2c1C(=O)OC)C(=O)c1c(O)ccc(O)c1C3=O 0
C[C@H]1c2cccc(O)c2C(=O)C2=C(O)[C@]3(O)C(=O)C(C(N)=O)=C(O)[C@@H](N(C)C)[C@@H]3[C@@H](O)[C@@H]21 0
COC(=O)[C@H]1[C@H]2C[C@H]3c4[nH]c5ccccc5c4CCN3C[C@@H]2CC[C@@H]1O 0
CN(C(=O)CN(CCO)CC(=O)N(C)C(C)(C)Cc1ccccc1)C(C)(C)Cc1ccccc1 0
COc1ccc([C@@H](C)C(=O)c2ccc(O)cc2O)cc1 1
CC1(C)C2CCC1(C)C(O)C2 (centres undefined) 0
CC(=O)O[C@]1(C)CC[C@@]23C[C@H]1C(C)(C)[C@@H]2CC[C@H]3C 0

Already shown: entries from further up.
Dopaminergic neuron differentiation score, inactive:
CCc1ccc2c(O)c3c(cc2c1C(=O)OC)C(=O)c1c(O)ccc(O)c1C3=O 0
C[C@H]1c2cccc(O)c2C(=O)C2=C(O)[C@]3(O)C(=O)C(C(N)=O)=C(O)[C@@H](N(C)C)[C@@H]3[C@@H](O)[C@@H]21 0
COC(=O)[C@H]1[C@H]2C[C@H]3c4[nH]c5ccccc5c4CCN3C[C@@H]2CC[C@@H]1O 0

Source: the supplement of paper PMC4635364
